These are yes or no findings as the source states them, for the method shown. In cells and extracts the contact can be indirect. A result given as binding can be weak or reduced; the word gives no strength.

Chains of the proteins cited; added tags and fusions are not shown. Lines headed by an entry give the natural chain unless they say otherwise; changes in a name come on top.
UniProt P02525: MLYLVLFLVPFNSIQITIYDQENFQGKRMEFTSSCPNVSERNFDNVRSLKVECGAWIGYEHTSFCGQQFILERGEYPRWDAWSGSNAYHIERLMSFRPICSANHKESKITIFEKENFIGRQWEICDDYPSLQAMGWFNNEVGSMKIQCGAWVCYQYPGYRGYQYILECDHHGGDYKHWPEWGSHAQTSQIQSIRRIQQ

The target in this test is βA1-crystallin-mCherry (mouse) (UniProt P02525). In words: co-IP; RFP-magnetic beads (Chromotek) on RIPA lysates of WT and Cryba1 KO mouse astrocytes transfected for 48 h with mCherry constructs; 2 h at 4 °C; washed in 10 mM Tris/Cl pH 7.5, 150 mM NaCl, 0.5 mM EDTA; western blot for PTP1B. A general note: In western blotting, separated proteins are transferred to a membrane and probed.

B1: protein tyrosine phosphatase 1B (PTP1B), endogenous in mouse astrocytes (enzyme, UniProt P35821 1-432)
chain: MEMEKEFEEIDKAGNWAAIYQDIRHEASDFPCKVAKLPKNKNRNRYRDVSPFDHSRIKLHQEDNDYINASLIKMEEAQRSYILTQGPLPNTCGHFWEMVWEQKSRGVVMLNRIMEKGSLKCAQYWPQQEEKEMVFDDTGLKLTLISEDVKSYYTVRQLELENLTTKETREILHFHYTTWPDFGVPESPASFLNFLFKVRESGSLSLEHGPIVVHCSAGIGRSGTFCLADTCLLLMDKRKDPSSVDIKKVLLEMRRFRMGLIQTADQLRFSYLAVIEGAKFIMGDSSVQDQWKELSREDLDLPPEHVPPPPRPPKRTLEPHNGKCKELFSSHQWVSEETCGDEDSLAREEGRAQSSAMHSVSSMSPDTEVRRRMVGGGLQSAQASVPTEEELSSTEEEHKAHWPSHWKPFLVNVCMATLLATGAYLCYRVCFH
B1: the binding entry is recorded as “binds”.
